Laboratory results: PubChem BioAssay AID1259254 (NCATS, 2017)
Screen: 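Gene knock-downs that lead to re-replication, shown by excess G2 DNA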 (primary screen). System: human HCT116 colorectal cancer cells. Knock-down reagent: single siRNA against human genes. Time to read-out: 3 days. Measurement: 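Nuclei stained with Hoechst and imaged; cell-cycle phase assigned by DNA content; G2 share scaled per plate, non-targeting siRNA 0%, GMNN siRNA 100%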. Reading the numbers: G2 robust z-score and G2 cells, % of GMNN control: higher = more G2 cells, more excess DNA replication; raw share of cells in G2: higher = larger share of cells with G2 DNA content. Rule for the call: 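Active siRNAs have a G2 robust z of 5 or more median absolute deviations over the median, which in these data means about 38% or higher of GMNN control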.
The deposit covers about 59,000 reagents; this is a part drawn at random. Of all reagents, about 1,550 (2.6%) are marked active. 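G2 share is only a proxy for re-replication; each gene was hit by three separate siRNAs, and active genes were retested.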 Raw values are not corrected between plates. The numbers tell different reagents against one gene apart. No sequences are given here. Not given: the amount of reagent.

| gene | siRNA no. | G2 robust z-score | G2 cells, % of GMNN control | raw share of cells in G2 (%) | Outcome |
| --- | --- | --- | --- | --- | --- |
| ZNF684 | 1 | 0.0651 | 3.43 | 4.27 | inactive |
| ZNF684 | 2 | 2.22 | 18.6 | 9.63 | inactive |
| ZNF684 | 3 | 0.0507 | 3.32 | 4.69 | inactive |
| PPIL1 | 1 | 0.0206 | 3.11 | 7.37 | inactive |
| PPIL1 | 2 | 1.88 | 16.2 | 10.2 | inactive |
| PPIL1 | 3 | 0.136 | 3.92 | 5.3 | inactive |
| ATF4P3 | 1 | -0.626 | -1.44 | 3.09 | inactive |
| ATF4P3 | 2 | -0.562 | -0.984 | 2.92 | inactive |
| ATF4P3 | 3 | -0.0813 | 2.4 | 3.84 | inactive |
| CX3CL1 | 1 | 0.0789 | 3.52 | 6.47 | inactive |
| CX3CL1 | 2 | -0.885 | -3.26 | 2.93 | inactive |
| CX3CL1 | 3 | 1.2 | 11.4 | 7.48 | inactive |
| SLPI | 1 | -0.591 | -1.19 | 5.28 | inactive |
| SLPI | 2 | 2.24 | 18.7 | 10.2 | inactive |
| SLPI | 3 | -0.385 | 0.261 | 4.64 | inactive |
| LINC02914 | 1 | 0.451 | 6.14 | 5.13 | inactive |
| LINC02914 | 2 | -0.376 | 0.319 | 3.76 | inactive |
| LINC02914 | 3 | -0.317 | 0.74 | 3.33 | inactive |
| TRAT1 | 1 | 0.347 | 5.41 | 5.92 | inactive |
| TRAT1 | 2 | 0.0454 | 3.29 | 5.79 | inactive |
| TRAT1 | 3 | -0.475 | -0.372 | 3.14 | inactive |
| FAM110C | 1 | -0.879 | -3.22 | 2.02 | inactive |
| FAM110C | 2 | -0.792 | -2.6 | 2.62 | inactive |
| FAM110C | 3 | 0.239 | 4.65 | 5.18 | inactive |
| GSTM3 | 1 | 6.32 | 47.5 | 22.3 | active |
| GSTM3 | 2 | 0.55 | 6.84 | 8.29 | inactive |
| GSTM3 | 3 | 0.0522 | 3.33 | 5.42 | inactive |
| TCF21 | 1 | -0.79 | -2.59 | 4.09 | inactive |
| TCF21 | 2 | 0.0926 | 3.62 | 5.35 | inactive |
| TCF21 | 3 | -0.856 | -3.06 | 3.51 | inactive |
| TSC2 | 1 | 4.56 | 35 | 20.4 | inactive |
| TSC2 | 2 | 0.605 | 7.22 | 6.85 | inactive |
| TSC2 | 3 | 0.752 | 8.26 | 7.34 | inactive |

Single entries from above:
For “raw share of cells in G2 (%)”, TCF21 #3 reads 3.51
CX3CL1 #1, raw share of cells in G2 (%): 6.47
FAM110C #2, G2 cells, % of GMNN control → -2.6
Under “G2 robust z-score”, ZNF684 #2 reads 2.22

Next results follow:
| gene | siRNA no. | G2 robust z-score | G2 cells, % of GMNN control | raw share of cells in G2 (%) | Outcome |
| --- | --- | --- | --- | --- | --- |
| NEDD8 | 1 | 4.93 | 37.7 | 17 | inactive |
| NEDD8 | 2 | 7.04 | 52.5 | 27.3 | active |
| NEDD8 | 3 | 8.02 | 59.4 | 27.7 | active |
| SNX16 | 1 | 0.793 | 8.55 | 8.25 | inactive |
| SNX16 | 2 | -0.249 | 1.22 | 5.63 | inactive |
| SNX16 | 3 | -0.782 | -2.53 | 2.87 | inactive |
| GDF10 | 1 | 0.425 | 5.96 | 8.1 | inactive |
| GDF10 | 2 | 2.71 | 22 | 12.2 | inactive |
| GDF10 | 3 | 0.25 | 4.73 | 5.37 | inactive |
| VAV2 | 1 | -1.03 | -4.27 | 2.67 | inactive |
| VAV2 | 2 | -1.02 | -4.18 | 3.1 | inactive |
| VAV2 | 3 | 0.336 | 5.33 | 7.85 | inactive |
| OR4E2 | 1 | 0.441 | 6.07 | 5.42 | inactive |
| OR4E2 | 2 | 1.03 | 10.2 | 8.26 | inactive |
| OR4E2 | 3 | -0.744 | -2.27 | 2.96 | inactive |
| MICOS10 | 1 | -0.357 | 0.457 | 3.8 | inactive |
| MICOS10 | 2 | -0.979 | -3.92 | 1.93 | inactive |
| MICOS10 | 3 | -0.186 | 1.66 | 3.68 | inactive |
| CCR2 | 1 | 0.0989 | 3.66 | 4.53 | inactive |
| CCR2 | 2 | 0.737 | 8.15 | 8.76 | inactive |
| CCR2 | 3 | -0.788 | -2.57 | 3.62 | inactive |
| CCR2 | 4 | -0.561 | -0.978 | 2.97 | inactive |
| CCR2 | 5 | 2.48 | 20.4 | 11.8 | inactive |
| CCR2 | 6 | 3.33 | 26.4 | 11.8 | inactive |
| SCN10A | 1 | -0.357 | 0.456 | 5.45 | inactive |
| SCN10A | 2 | -0.748 | -2.29 | 4.01 | inactive |
| SCN10A | 3 | -0.0614 | 2.54 | 5.36 | inactive |
| C1orf122 | 1 | -0.336 | 0.602 | 2.8 | inactive |
| C1orf122 | 2 | 1.01 | 10.1 | 7.97 | inactive |
| C1orf122 | 3 | -0.592 | -1.2 | 2.72 | inactive |
| TMEM35A | 1 | 0.105 | 3.7 | 6.19 | inactive |
| TMEM35A | 2 | 2.32 | 19.3 | 13.3 | inactive |
| TMEM35A | 3 | -0.937 | -3.63 | 1.74 | inactive |
| QTGAL | 1 | 0.837 | 8.86 | 8.42 | inactive |
| QTGAL | 2 | 1.38 | 12.7 | 12 | inactive |
| QTGAL | 3 | -0.0282 | 2.77 | 5.72 | inactive |
